Reference: publication PMC4232310

T1: flag-tagged Mts4 (Rpn1) (S. pombe) (UniProt P87048)
T1 sequence: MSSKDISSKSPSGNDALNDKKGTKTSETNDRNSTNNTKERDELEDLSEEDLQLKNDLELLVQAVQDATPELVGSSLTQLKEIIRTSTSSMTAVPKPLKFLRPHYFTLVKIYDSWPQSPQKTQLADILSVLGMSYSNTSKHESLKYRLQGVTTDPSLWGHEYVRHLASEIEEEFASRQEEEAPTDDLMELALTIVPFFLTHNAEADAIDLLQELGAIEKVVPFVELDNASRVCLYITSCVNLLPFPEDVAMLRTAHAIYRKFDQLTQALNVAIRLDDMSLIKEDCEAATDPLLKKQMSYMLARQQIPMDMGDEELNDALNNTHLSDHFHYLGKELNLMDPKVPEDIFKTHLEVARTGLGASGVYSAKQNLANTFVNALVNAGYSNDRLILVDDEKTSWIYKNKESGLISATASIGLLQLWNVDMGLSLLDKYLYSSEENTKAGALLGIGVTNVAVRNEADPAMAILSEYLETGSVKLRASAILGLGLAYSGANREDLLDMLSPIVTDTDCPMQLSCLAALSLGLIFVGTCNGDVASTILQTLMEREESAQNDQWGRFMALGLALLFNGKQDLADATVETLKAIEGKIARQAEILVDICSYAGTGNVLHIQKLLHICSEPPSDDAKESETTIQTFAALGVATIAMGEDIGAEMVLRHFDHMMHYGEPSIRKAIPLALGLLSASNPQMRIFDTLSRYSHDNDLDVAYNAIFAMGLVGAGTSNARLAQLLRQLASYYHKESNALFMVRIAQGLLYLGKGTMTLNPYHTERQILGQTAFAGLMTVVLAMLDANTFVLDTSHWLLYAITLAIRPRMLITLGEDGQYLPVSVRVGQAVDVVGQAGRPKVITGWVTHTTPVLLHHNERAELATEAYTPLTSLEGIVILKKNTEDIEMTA


Molecular target: T1, flag-tagged Mts4 (Rpn1) (S. pombe)
Assay: affinity purification with mass spectrometry; 26S proteasomes, flag-tagged on Mts4 (Rpn1), purified from wild-type, rpn10Δ, rpn10ΔUIM and dss1Δ cells; label-free quantitative mass spectroscopy

binding | Binder
binds | Rpn7 (protein, UniProt Q10335 1-397) MTEKARTVSDLTISQAIFELSSPFLENKSQKALDTLFSAIRDHDLAPLYKYLSENPKTSASIDFDSNFLNSMIKKNEEKLAEFDKAIEDAQELNGEHEILEAMKNKADYYTNICDRERGVQLCDETFERATLTGMKIDVLFSKIRLAYVYADMRVVGQLLEKLKPLIEKGGDWERKNRLKAYQGIYLMSIRNFSGAADLLLDCMSTFSSTELLPYYDVVRYAVISGAISLDRVDVKTKIVDSPEVLAVLPQNESMSSLEACINSLYLCDYSGFFRTLADVEVNHLKCDQFLVAHYRYYVREMRRRAYAQLLESYRALSIDSMAASFGVSVDYIDRDLASFIPDNKLNCVIDRVNGVVFTNRPDEKNRQYQEVVKQGDVLLNKLQKYQATVMRGAFKV
binds | Rpn3 (protein, UniProt O42897 1-497) MIDDQRDMQVDSVNQEENVDSGETKQNTVTEVPRTVLQDVEANIAALMQATKQRDPRLVYRSLRTTSNICHRLNADVLGQLIKKYYSFDNSLKNELLELIDMPQNGDDSSTSITNGNGNTIFPEVDMYLQLLLSMTLYYNEKYEVGAEYIKKVIARLQSYDRRTLDQIAAKLYFYYILFFEKCNRSVECRNTLLSVHRTASLRHDSETQAMVLTLLLRNYIQFNLYDQADRLVSKTSFLTNASNNLAIRYQYYLGRIRAIQLDYTTAHEHLVSAIRKAPNTVYAVQFLEAVYKLHIVVQLLMGEIPERRIFRQKSLEKTLVPYLRISQAVRIGDLCAFTDALSKYEAEFRFDGLYTLICRLRHTVIKTGLRMISLSYSRISLRDVCIKLGLDSEESAEYIVAKGIRDGVIDASIDHSNAFMASNEAMDIYSTEQPQQAFHERIQFCLALHNDSIKSMRYPMDAHKSELEGVEEARRRMDKEMAEADLDDDEPDLGEF

No constants are given. Whether binding was seen depends on the method and setting. Binding seen in cells or lysates may run through a third protein. Here binding means that the protein was enriched with, or labelled near, the bait; the list need not be complete. Sequences can lack the tags named with a protein.
